Reference: article doi:10.1101/437228
Results are given in words; binding and its absence hold for the method and conditions named. Binding seen in cells or lysates may run through a third protein. Some results given as binding are weak or reduced against the parent protein; the word gives no strength.

By UniProt entry, the sequences of proteins in these tests, tags left out.
UniProt O08539: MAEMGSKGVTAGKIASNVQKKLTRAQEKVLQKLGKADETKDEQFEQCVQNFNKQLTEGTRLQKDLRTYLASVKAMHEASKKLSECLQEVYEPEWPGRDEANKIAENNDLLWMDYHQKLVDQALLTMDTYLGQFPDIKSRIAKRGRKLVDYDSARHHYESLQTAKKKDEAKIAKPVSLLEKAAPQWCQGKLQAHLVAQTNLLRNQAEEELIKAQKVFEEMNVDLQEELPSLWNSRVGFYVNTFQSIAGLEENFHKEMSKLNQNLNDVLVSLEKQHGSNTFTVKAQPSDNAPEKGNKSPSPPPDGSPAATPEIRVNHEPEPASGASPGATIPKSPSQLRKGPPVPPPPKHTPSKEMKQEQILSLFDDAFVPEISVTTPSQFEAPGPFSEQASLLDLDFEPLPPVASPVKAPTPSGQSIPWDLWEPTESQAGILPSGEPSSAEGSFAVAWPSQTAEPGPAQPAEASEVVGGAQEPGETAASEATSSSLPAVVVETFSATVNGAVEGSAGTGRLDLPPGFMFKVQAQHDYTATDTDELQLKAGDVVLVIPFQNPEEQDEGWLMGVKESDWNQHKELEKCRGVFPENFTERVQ
UniProt Q60610: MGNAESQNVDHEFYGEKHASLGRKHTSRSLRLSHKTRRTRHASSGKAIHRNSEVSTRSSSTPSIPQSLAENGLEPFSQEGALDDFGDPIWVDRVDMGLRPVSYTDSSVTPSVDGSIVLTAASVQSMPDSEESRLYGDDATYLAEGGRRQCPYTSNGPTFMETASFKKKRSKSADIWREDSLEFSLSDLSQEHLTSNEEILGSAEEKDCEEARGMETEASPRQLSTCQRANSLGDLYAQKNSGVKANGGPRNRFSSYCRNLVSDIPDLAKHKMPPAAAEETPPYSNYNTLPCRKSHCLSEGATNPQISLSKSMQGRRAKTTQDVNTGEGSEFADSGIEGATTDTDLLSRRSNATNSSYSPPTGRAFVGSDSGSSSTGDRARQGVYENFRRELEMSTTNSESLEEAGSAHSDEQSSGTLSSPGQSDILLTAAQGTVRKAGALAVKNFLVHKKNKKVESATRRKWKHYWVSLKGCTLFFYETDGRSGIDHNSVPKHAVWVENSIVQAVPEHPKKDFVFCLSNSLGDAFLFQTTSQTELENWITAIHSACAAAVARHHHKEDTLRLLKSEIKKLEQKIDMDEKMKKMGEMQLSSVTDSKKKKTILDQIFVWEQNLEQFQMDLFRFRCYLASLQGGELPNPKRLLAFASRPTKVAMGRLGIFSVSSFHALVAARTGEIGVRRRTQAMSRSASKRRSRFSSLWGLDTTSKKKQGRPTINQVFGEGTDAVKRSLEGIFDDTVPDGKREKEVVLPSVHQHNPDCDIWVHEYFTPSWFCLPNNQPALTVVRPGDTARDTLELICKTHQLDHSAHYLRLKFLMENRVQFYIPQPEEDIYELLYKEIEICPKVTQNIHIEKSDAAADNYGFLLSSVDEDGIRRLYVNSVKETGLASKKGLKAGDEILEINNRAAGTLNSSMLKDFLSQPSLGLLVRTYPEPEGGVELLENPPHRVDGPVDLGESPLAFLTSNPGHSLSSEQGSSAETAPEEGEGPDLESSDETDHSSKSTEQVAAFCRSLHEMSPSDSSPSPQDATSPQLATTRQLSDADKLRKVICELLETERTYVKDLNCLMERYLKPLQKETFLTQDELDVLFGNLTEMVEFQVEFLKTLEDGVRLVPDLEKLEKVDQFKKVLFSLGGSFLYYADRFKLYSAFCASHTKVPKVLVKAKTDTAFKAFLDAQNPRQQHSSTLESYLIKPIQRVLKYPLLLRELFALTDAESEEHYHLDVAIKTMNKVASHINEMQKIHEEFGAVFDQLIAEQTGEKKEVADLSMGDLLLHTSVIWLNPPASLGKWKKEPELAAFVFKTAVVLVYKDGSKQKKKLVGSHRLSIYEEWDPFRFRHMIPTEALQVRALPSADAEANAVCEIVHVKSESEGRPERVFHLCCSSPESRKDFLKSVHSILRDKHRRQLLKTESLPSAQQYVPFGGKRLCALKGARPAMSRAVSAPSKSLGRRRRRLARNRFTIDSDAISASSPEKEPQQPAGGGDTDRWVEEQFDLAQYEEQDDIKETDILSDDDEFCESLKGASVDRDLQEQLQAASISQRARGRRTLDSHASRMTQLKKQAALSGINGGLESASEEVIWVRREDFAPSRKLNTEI
UniProt Q811D0: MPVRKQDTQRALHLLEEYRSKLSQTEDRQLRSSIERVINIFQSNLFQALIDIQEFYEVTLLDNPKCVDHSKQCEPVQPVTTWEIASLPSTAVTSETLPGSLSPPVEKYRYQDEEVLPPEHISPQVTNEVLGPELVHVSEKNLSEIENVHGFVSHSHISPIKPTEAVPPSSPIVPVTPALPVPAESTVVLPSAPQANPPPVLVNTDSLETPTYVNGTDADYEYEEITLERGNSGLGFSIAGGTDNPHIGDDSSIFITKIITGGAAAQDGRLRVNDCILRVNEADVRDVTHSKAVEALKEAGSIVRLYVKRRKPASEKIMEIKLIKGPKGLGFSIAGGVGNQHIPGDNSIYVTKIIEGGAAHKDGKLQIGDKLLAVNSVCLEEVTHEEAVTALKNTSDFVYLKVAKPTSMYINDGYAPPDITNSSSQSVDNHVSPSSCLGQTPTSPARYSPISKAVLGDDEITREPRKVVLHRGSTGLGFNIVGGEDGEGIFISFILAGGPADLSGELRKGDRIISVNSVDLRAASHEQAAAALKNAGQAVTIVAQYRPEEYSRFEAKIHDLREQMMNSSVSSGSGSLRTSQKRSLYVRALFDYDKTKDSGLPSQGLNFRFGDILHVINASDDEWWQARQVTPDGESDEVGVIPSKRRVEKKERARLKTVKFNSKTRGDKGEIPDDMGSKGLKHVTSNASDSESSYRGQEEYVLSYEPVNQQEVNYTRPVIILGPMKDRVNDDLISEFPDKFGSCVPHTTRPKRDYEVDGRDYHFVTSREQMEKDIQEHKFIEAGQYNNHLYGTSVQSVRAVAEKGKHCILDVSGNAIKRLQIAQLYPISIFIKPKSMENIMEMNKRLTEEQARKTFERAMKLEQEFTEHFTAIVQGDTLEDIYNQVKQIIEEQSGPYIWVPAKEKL

Assays:
[1] = molecular target: BIN1 (endogenous, mouse primary hippocampal neurons) (mouse (endogenous in primary hippocampal neurons)) (UniProt O08539); assay: proximity ligation
[2] = molecular target: TIAM1 (endogenous, mouse primary hippocampal neurons) (mouse (endogenous in primary hippocampal neurons)) (UniProt Q60610); assay: proximity ligation

| binding [1] | binding [2] | Substance |
| --- | --- | --- |
| binds | – | TIAM1 (endogenous, mouse primary hippocampal neurons) (from UniProt Q60610 1-1591) |
| – | binds | DLG1 (endogenous, mouse primary hippocampal neurons) (from UniProt Q811D0 1-905) |
